# Record: PubChem BioAssay AID1671195 (Yale University, 2021)
# Screen: 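Genes whose knockdown alters LDL uptake in liver cancer cells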 (primary screen)
# System: human Huh7 hepatoma cells
# Knock-down reagent: siRNA pool against human genes, 18 nM
# Duration: about 2 to 2.5 days of knockdown, then 8 h LDL uptake
# Conditions: DiI-labelled LDL at 30 µg/ml for 8 h, in lipoprotein-deficient serum medium
# Detection: 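Per-cell DiI-LDL intensity by automated imaging; well means scaled to the plate median and given as a robust z-score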
# Scale: robust z-score: higher = more LDL uptake after knockdown
# Hit rule: 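Active when two or more replicates show a robust z-score above 2 or below -2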
# Shown is one part, drawn at random, of about 22,000 reagents tested. In the full data, about 1,510 (6.9%) were called active. 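Active includes knockdowns raising or lowering LDL uptake; positive z-scores mean more uptake, negative mean less.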 A number with no mark means an inactive call.
target gene,"robust z-score, replicate 1","robust z-score, replicate 2","robust z-score, replicate 3"
NMB (GeneID 4828),-1.25,-1.72,-1.04
ELK1 (GeneID 2002),0.212,2.32,0.648
PLCE1 (GeneID 51196),0.026,0.849,1.32
LOC392473 (retired record) (GeneID 392473),0.23,0.489,1.1
TBC1D28 (GeneID 254272),-0.22,0.0635,0.403
FNTB (GeneID 2342),-1.05,-0.913,-0.696
SLC2A1-DT (GeneID 440584),-0.867,-0.553,-0.575
FCRL1 (GeneID 115350),-0.649,-1.03,-1.21
HSPBP1 (GeneID 23640),-0.2,-0.714,-0.417
IL33 (GeneID 90865),-0.0551,0.316,0.687
LRP1B (GeneID 53353),-0.817,-0.51,-0.332
OSBPL6 (GeneID 114880),-0.0458,-1.44,-1.19
SETD2 (GeneID 29072),0.201,-0.528,-0.232
BIRC2 (GeneID 329),2.11 (active),2.69,1.63
NDUFB11 (GeneID 54539),0.308,0.11,0.385
ZNF132 (GeneID 7691),-1.81,-1.75,-1.55
ABHD12 (GeneID 26090),-2.39,-1.53,-1.43
LYPD1 (GeneID 116372),0.0504,0.203,-0.137
S1PR1 (GeneID 1901),-0.966,-0.541,-0.301
MIR9-1HG (GeneID 10485),1.02,1.74,1.23
TRPC4AP (GeneID 26133),0.514,0.391,0.159
FOXA1 (GeneID 3169),0.222,0.228,0.22
CMTM7 (GeneID 112616),-0.0376,0.613,0.427
TCFL5 (GeneID 10732),0.809,0.904,1.08
LOC401621 (retired record) (GeneID 401621),0.0305,-1.37,-1.02
LOC442683 (retired record) (GeneID 442683),-0.00183,1.02,0.289
KPNA5 (GeneID 3841),-0.364,0.677,0.731
BET1L (GeneID 51272),-1.22,-0.919,-0.469

No new results follow: an excerpt of the list.
target gene,"robust z-score, replicate 1","robust z-score, replicate 2","robust z-score, replicate 3"
IL33 (GeneID 90865),-0.0551,0.316,0.687
LRP1B (GeneID 53353),-0.817,-0.51,-0.332
